Measured data: PubChem BioAssay AID1259405 (NCATS, 2018)

Screen: 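Mouse-designed siRNAs used to find CHO productivity engineering targets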 (primary screen)
System: Chinese hamster CHO-K1 ovary cells with stable secreted eGFP expression
Knock-down reagent: single siRNA against mouse genes, 0.8 pmol siRNA per well (2 µl of 400 nM stock)
Duration: 3 days
Measurement: 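Percent of the per-plate non-targeting control median for intracellular GFP per well by laser scanning cytometry and for cell viability by ATP luminescence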
Scale: GFP, % of control: higher = more GFP per well, higher productivity; viability (ATP), % of control: higher = more viable cells (more ATP)
Hit rule: 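Called active when intracellular GFP, relative to negative control, is at or above 120%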
Here is one part, drawn at random, of about 50,000 reagents tested. About 4,000 of them (8%) count as active. 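Mouse siRNA library applied to hamster cells; one well for each siRNA.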 Entries without a mark were called inactive. The numbers tell different reagents against one gene apart.

Idi2 #1 — GFP, % of control: 28.9; viability (ATP), % of control: 14.5
Idi2 #2 — GFP, % of control: 49; viability (ATP), % of control: 79.3
Idi2 #3 — GFP, % of control: 59.7; viability (ATP), % of control: 67.4
Gfus #1 — GFP, % of control: 122 (active); viability (ATP), % of control: 78
Gfus #2 — GFP, % of control: 73; viability (ATP), % of control: 74
Ppp2cb #1 — GFP, % of control: 50.4; viability (ATP), % of control: 55.7
Ppp2cb #2 — GFP, % of control: 65; viability (ATP), % of control: 41.5
Ppp2cb #3 — GFP, % of control: 57.1; viability (ATP), % of control: 72.6
Prr15 #1 — GFP, % of control: 47.2; viability (ATP), % of control: 77.7
Prr15 #2 — GFP, % of control: 97.5; viability (ATP), % of control: 84.5
Prr15 #3 — GFP, % of control: 49.6; viability (ATP), % of control: 71.7
Amer2 #1 — GFP, % of control: 62.2; viability (ATP), % of control: 87
Amer2 #2 — GFP, % of control: 52.4; viability (ATP), % of control: 35
Amer2 #3 — GFP, % of control: 93.9; viability (ATP), % of control: 75.8
Tab1 #1 — GFP, % of control: 65.4; viability (ATP), % of control: 69.4
Tab1 #2 — GFP, % of control: 76.3; viability (ATP), % of control: 63.6
Sqle #1 — GFP, % of control: 76.9; viability (ATP), % of control: 102
Sqle #2 — GFP, % of control: 79.8; viability (ATP), % of control: 72.2
Myo9b #1 — GFP, % of control: 74.6; viability (ATP), % of control: 55.2
Myo9b #2 — GFP, % of control: 50.5; viability (ATP), % of control: 55
Prl3c1 #1 — GFP, % of control: 53.1; viability (ATP), % of control: 70.1
Prl3c1 #2 — GFP, % of control: 57.5; viability (ATP), % of control: 77.7
Prl3c1 #3 — GFP, % of control: 71.3; viability (ATP), % of control: 87.2
Ubtd2 #1 — GFP, % of control: 87.4; viability (ATP), % of control: 55.8
Ubtd2 #2 — GFP, % of control: 56.7; viability (ATP), % of control: 60.2
Ubtd2 #3 — GFP, % of control: 65.4; viability (ATP), % of control: 61.1
Zfp260 #1 — GFP, % of control: 64.3; viability (ATP), % of control: 65.3
Zfp260 #2 — GFP, % of control: 68.7; viability (ATP), % of control: 73.5
Zfp260 #3 — GFP, % of control: 61; viability (ATP), % of control: 43.8
Igsf21 #1 — GFP, % of control: 58.6; viability (ATP), % of control: 68.3
Igsf21 #2 — GFP, % of control: 71.9; viability (ATP), % of control: 100
Igsf21 #3 — GFP, % of control: 81.2; viability (ATP), % of control: 110
Elk1 #1 — GFP, % of control: 73.5; viability (ATP), % of control: 47.7
Elk1 #2 — GFP, % of control: 79.6; viability (ATP), % of control: 56.4
Elk1 #3 — GFP, % of control: 92.1; viability (ATP), % of control: 98

Limited to “viability (ATP), % of control”, for 7 of the entries above:
Ppp2cb #2	41.5
Ppp2cb #3	72.6
Prr15 #1	77.7
Prr15 #2	84.5
Prr15 #3	71.7
Amer2 #1	87
Amer2 #2	35

Additional results:
Or10ag56 #1 — GFP, % of control: 126 (active); viability (ATP), % of control: 91
Or10ag56 #2 — GFP, % of control: 34.7; viability (ATP), % of control: 68.8
Or10ag56 #3 — GFP, % of control: 101; viability (ATP), % of control: 76.4
Ercc2 #1 — GFP, % of control: 81.3; viability (ATP), % of control: 102
Ercc2 #2 — GFP, % of control: 63.9; viability (ATP), % of control: 63.6
Ercc2 #3 — GFP, % of control: 92.4; viability (ATP), % of control: 94.3
Zfp384 #1 — GFP, % of control: 114; viability (ATP), % of control: 57.9
Zfp384 #2 — GFP, % of control: 89.2; viability (ATP), % of control: 88.2
Foxj1 #1 — GFP, % of control: 87.8; viability (ATP), % of control: 99.4
Foxj1 #2 — GFP, % of control: 83.5; viability (ATP), % of control: 60.8
Akirin1 #1 — GFP, % of control: 54.7; viability (ATP), % of control: 68.5
Akirin1 #2 — GFP, % of control: 70.4; viability (ATP), % of control: 87.4
Akirin1 #3 — GFP, % of control: 78.6; viability (ATP), % of control: 112
Acot7 #1 — GFP, % of control: 22.7; viability (ATP), % of control: 26.6
Acot7 #2 — GFP, % of control: 76.3; viability (ATP), % of control: 101
Acot7 #3 — GFP, % of control: 51.8; viability (ATP), % of control: 61.2
Fabp3 #1 — GFP, % of control: 97.8; viability (ATP), % of control: 89.5
Fabp3 #2 — GFP, % of control: 112; viability (ATP), % of control: 92.1
Fabp3 #3 — GFP, % of control: 71.6; viability (ATP), % of control: 61.6
